Laboratory results from publication PMC10603098.
No constants are given. Whether binding was seen depends on the method and setting. Binding seen in cells or lysates may run through a third protein. These calls come from enrichment with a bait or labelling near it, and not all partners need be listed. For some assays here: A no says only that the protein was not detected with the bait.

Sequences of proteins named here, by UniProt entry; tags and fusion partners are left off.
UniProt D3ZK93: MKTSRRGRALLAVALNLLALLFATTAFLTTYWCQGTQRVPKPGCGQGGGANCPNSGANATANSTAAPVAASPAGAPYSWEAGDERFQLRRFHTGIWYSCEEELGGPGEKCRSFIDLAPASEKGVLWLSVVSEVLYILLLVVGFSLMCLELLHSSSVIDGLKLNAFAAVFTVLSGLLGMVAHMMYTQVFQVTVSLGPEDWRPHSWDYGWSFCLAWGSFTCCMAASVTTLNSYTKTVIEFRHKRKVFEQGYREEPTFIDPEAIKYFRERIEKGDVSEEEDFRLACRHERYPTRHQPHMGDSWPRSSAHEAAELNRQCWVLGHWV

Legend:
[1] = biological target: germ cell-specific gene 1-like protein (GSG1L) (rat (endogenous in rat brain)) (UniProt D3ZK93); experiment: affinity purification with mass spectrometry; multi-epitope AP-MS: three polyclonal anti-GSG1L antibodies on protein A Dynabeads, 2 h; membranes of adult (P59) rat brain solubilised in CL-47; GSG1L KO rats as negative control; minimum tnR of 0.25 as indicator of specific interaction
[2] = biological target: germ cell-specific gene 1-like protein (GSG1L) (rat (endogenous in rat brain)) (UniProt D3ZK93); experiment: affinity purification with mass spectrometry; two-step APs: WT rat brain membranes solubilised in CL-91; first a target-depleting mixture of anti-GSG1L antibodies, then a mixture of anti-GluA1-4 antibodies, each 2 h on protein A Dynabeads

Binder	binding [1]	binding [2]
leucine-rich repeat transmembrane protein 4 (LRRT4) (protein, UniProt B4F7C5 31-590) QRACPKNCRCDGKIVYCESHAFADIPENISGGSQGLSLRFNSIQKLKSNQFAGLNQLIWLYLDHNYISSVDEDAFQGIRRLKELILSSNKITYLHNKTFHPVPNLRNLDLSYNKLQTLQSEQFKGLRKLIILHLRSNSLKTVPIRVFQDCRNLDFLDLGYNRLRSLSRNAFAGLLKLKELHLEHNQFSKINFAHFPRLFNLRSIYLQWNRIRSVSQGLTWTWSSLHTLDLSGNDIQAIEPGTFKCLPNLQKLNLDSNKLTNVSQETVNAWISLISITLSGNMWECSRSICPLFYWLKNFKGNKESTMICAGPKHIQGEKVSDAVETYNICSDVQVVNTERSHLAPQTPQKPPFFPKPTIFKSDAIPATLEAVSPSPGFQIPGTDHEYEHVSFHKIIAGSVALFLSVAMILLVIYVSWKRYPASMKQLQQHSLMKRRRKKARESERQMNSPLQEYYVDYKPTNSETMDISVNGSGPCTYTISGSRECEMPHHVKPLPYYSYDQPVIGYCQAHQPLHINKAYEAVSIEQDDSPSLELGRDHSFIATIARSAAPAIYLERITN	binds	binds
transmembrane AMPAR regulatory protein γ3 (TARP γ3) (protein, UniProt Q8VHX0 1-315) MRMCDRGIQMLITTVGAFAAFSLMTIAVGTDYWLYSRGVCRTKSTSDNETSRKNEEVMTHSGLWRTCCLEGAFRGVCKKIDHFPEDADYEQDTAEYLLRAVRASSVFPILSVTLLFFGGLCVAASEFHRSRHSVILSAGIFFVSAGLSNIIGIIVYISANAGDPGQRDSKKSYSYGWSFYFGAFSFIIAEIVGVVAVHIYIEKHQQLRARSHSELLKKSTFARLPPYRYRFRRRSSSRSTEPRSRDLSPISKGFHTIPSTDISMFTLSRDPSKLTMGTLLNSDRDHAFLQFHNSTPKEFKESLHNNPANRRTTPV	binds	–
transmembrane AMPAR regulatory protein γ8 (TARP γ8) (protein, UniProt Q8VHW5 1-421) MESLKRWNEERGLWCEKGVQVLLTTIGAFAAFGLMTIAISTDYWLYTRALICNTTNLTAGDDGPPHRGGSGSSEKKDPGGLTHSGLWRICCLEGLKRGVCVKINHFPEDTDYDHDSAEYLLRVVRASSIFPILSAILLLLGGVCVAASRVYKSKRNIILGAGILFVAAGLSNIIGVIVYISANAGEPGPKRDEEKKNHYSYGWSFYFGGLSFILAEVIGVLAVNIYIERSREAHCQSRSDLLKAGGGAGGSGGSGPSAILRLPSYRFRYRRRSRSSSRGSSEASPSRDASPGGPGGPGFASTDISMYTLSRDPSKGSVAAGLASAGGGGGGAGVGAYGGAAGAAGGGGTGSERDRGSSAGFLTLHNAFPKEAASGVTVTVTGPPAAPAPAPPAPAAPAPGTLSKEAAASNTNTLNRKTTPV	binds	–
cornichon 2 (CNIH2) (protein, UniProt Q5BJU5 1-160) MAFTFAAFCYMLTLVLCASLIFFVIWHIIAFDELRTDFKNPIDQGNPARARERLKNIERICCLLRKLVVPEYSIHGLFCLMFLCAAEWVTLGLNIPLLFYHLWRYFHRPADGSEVMYDAVSIMNADILNYCQKESWCKLAFYLLSFFYYLYSMVYTLVSF	binds	–
FRRS1L (protein, UniProt D3ZE85 29-293) SPADDGAGPGGRGPRGRARGDAGADEAVPRHDSSYGTFAGEFYDLRYLSEEGYPFPTAPPVDPFAKIKVEDCGRTKGCFRYGKPGCNAETCDYFLSYRMIGADVEFELSADTDGWVAVGFSSDKKMGGDDVMACVHDDNGRVRIQHFYNVGQWAKEVQRNPARDEEGVFENNRVTCRFKRPVNVPRDETIVDLHLSWYYLFAWGPAIQGSITRHDIDSPPASERVVSIYKYEDIFMPSAAYQTFSSPFCLLLIVALTFYLLMGTP	no binding	–
CPT1c (protein, UniProt F1LN46 1-801) MAEAHQASSLLSSLSSDGAEVELSSSVWQEIYLSALRSWKRNLWRVWNDFLAGVVPATPLSWLFLFSTIQLACLLQLDPSLGLMEKIKELLPDWGGQHHQLQGLLAAAVFASCLWGTLIFTLHVALRLLLSHHGWLLEPHGTMSSPTKTWLALVRIFSGRHPRLFSFQRALPRQPVPGAQETVRKYLESMRPVLRDDAFDSVVALANDFLRLQAPRLQLYLQLKSWCASNYVSDWWEEFVYLRSRGSLVNSTYYMMDFLYVTPTPLQAARAGNAVHTLLLYRHLLNRQEIPPTLLMGMRPLCSAQYERMFNTTRIPGVEKDYLCHLQDSQHVAVFHQGRFFRVGTHSSNGLLSPRALEQQFQYILDDPSPACPLEEHLAALTAAPRSMWAQVRESVKTHAATALETVEGAAFFVSLDSEPAGLTRENPAASLDTYAHTLLTGQGHDRWFDKSFTLIVFSNGKLGLSVEHSWADCPVAGHLWEFTLATECFQLGYATDGHCKGHPDPALPKPQRLQWDLPKQIQPSISLALRGAKTLSGNIDCHVFPFFHFGKSFIKGCHVSSDSFIQLVLQLAHFRDRGQFCLTYESAMTRLFLEGRTETVRSCTREACQFVRAMENKERTDQQCLALFREAVDKHQALLKAAMSGQGIDRHLFALYIMSRLLHMQSPFLTQVQSQQWLLSTSQIPVQQTHLFDVHNYPDYVSSGGGFGPAHDHGYGVSYIFMGENAISFHISSKQSSTETDSHRLGQHIEDALLDVASLFQAGQQFKRQFTGLGESSGWKYSNLSCKTVDPNIPKSSTNL	no binding	–
ABHD6 (protein, UniProt Q5XI64 1-337) MDLDVVNMFVIAGGTLAIPILAFVASFLLWPSALIRIYYWYWRRTLGMQVRYVHHEDYQFCYSFRGRPGHKPSVLMLHGFSAHKDMWLSVVKFLPKNLHLVCVDMPGHEGTTRSSLDDLSIVGQVKRIHQFVECLKLNKKPFHLIGTSMGGNVAGVYAAYYPSDVCSLSLVCPAGLQYSTDNRFVQRLKELEDSAATQKIPLIPSTPEEMSEMLQLCSYVRFKVPQQILQGLVDVRIPHNSFYRKLFLEIVSEKSRYSLHENMDKIKVPTQIIWGKQDQVLDVSGADILAKSITNSQVEVLENCGHSVVMERPRKTAKLVVDFLASVHNPDNNKKLN	no binding	–
